Results from publication PMC8672915.
No constants are given. Whether binding was seen depends on the method and setting. In cells and extracts the contact can be indirect. Some entries that bind do so weakly or less than the wild type. For some of these results: Where a sequence is shown, tags or fusion partners need not be part of it.

Amino acid sequences for entries named in this document (tags omitted).
UniProt Q7Z434: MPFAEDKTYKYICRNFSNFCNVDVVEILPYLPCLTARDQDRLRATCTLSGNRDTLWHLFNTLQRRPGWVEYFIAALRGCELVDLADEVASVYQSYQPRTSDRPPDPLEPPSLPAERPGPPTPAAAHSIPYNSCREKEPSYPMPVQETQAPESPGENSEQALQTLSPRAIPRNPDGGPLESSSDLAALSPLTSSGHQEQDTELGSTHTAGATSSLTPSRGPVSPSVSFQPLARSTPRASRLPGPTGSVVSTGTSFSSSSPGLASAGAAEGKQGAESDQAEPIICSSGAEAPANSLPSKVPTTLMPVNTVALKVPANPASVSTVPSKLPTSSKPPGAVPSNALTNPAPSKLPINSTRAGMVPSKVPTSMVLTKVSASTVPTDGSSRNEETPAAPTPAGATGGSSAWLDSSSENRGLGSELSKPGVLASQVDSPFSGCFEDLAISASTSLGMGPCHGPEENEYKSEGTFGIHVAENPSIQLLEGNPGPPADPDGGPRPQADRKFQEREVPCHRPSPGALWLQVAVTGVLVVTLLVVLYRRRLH
UniProt Q92918: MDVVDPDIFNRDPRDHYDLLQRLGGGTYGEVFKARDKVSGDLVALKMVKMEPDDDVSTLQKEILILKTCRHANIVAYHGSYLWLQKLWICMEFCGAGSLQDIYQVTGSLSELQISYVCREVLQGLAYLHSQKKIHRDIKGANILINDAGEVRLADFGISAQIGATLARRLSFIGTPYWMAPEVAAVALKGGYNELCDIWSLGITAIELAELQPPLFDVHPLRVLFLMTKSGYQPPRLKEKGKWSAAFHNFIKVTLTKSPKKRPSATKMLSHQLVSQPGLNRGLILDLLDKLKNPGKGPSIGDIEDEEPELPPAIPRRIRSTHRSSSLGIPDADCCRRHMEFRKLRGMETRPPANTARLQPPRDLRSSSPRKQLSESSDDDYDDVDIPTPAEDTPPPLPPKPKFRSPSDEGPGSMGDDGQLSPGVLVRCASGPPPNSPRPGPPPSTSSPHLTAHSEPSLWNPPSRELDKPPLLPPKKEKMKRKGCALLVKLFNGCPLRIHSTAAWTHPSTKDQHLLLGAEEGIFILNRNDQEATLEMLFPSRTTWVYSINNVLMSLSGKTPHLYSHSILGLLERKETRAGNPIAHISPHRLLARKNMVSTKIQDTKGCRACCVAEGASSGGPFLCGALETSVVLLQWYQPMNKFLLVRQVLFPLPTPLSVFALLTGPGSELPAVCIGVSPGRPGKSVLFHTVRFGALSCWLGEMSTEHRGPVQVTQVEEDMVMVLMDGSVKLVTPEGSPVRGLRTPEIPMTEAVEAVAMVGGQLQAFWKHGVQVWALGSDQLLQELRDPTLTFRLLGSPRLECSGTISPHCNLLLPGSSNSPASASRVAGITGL

Experiments:
Assay in all cases: co-IP; 293T cells co-transfected with tagged plasmids (8 μg each), in Fig. 7A treated with SeV or not for 10 h; Triton lysis buffer (1% Triton, 20 mM Tris-HCl pH 7.5, 150 mM NaCl, 1 mM EDTA); immunoprecipitated with anti-Flag and protein G/A-Sepharose overnight at 4°C; washed with lysis buffer containing 1 M NaCl; immunoblotting
[1] = biological target: T1, IκB kinase-ε (IKKε), human, Flag- or HA-tagged, expressed in 293T cells (human) (UniProt Q14164)
T1 sequence: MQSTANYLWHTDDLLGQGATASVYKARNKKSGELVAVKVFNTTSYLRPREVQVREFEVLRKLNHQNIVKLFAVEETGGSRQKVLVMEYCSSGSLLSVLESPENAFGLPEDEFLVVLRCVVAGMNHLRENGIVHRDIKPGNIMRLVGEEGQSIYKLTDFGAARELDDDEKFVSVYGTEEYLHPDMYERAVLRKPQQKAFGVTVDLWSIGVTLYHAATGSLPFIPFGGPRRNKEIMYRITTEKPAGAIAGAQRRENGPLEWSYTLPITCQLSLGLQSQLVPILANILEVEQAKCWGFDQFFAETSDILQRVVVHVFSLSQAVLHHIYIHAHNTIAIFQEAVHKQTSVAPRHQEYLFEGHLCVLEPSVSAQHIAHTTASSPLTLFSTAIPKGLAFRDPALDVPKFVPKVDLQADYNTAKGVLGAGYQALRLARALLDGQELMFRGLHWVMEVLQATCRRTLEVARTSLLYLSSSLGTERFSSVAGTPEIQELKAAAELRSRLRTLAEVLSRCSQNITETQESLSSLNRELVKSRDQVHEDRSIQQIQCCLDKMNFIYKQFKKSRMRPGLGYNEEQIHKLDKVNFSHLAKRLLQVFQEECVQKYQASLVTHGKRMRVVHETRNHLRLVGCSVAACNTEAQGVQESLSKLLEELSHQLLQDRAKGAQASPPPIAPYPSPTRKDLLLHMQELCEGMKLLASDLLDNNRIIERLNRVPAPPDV

[2] = biological target: MAVS, human, Flag- or HA-tagged, expressed in 293T cells (human) (UniProt Q7Z434)
[3] = biological target: T2, RIG-I, human, Flag- or HA-tagged, expressed in 293T cells (human) (UniProt O95786)
T2 sequence: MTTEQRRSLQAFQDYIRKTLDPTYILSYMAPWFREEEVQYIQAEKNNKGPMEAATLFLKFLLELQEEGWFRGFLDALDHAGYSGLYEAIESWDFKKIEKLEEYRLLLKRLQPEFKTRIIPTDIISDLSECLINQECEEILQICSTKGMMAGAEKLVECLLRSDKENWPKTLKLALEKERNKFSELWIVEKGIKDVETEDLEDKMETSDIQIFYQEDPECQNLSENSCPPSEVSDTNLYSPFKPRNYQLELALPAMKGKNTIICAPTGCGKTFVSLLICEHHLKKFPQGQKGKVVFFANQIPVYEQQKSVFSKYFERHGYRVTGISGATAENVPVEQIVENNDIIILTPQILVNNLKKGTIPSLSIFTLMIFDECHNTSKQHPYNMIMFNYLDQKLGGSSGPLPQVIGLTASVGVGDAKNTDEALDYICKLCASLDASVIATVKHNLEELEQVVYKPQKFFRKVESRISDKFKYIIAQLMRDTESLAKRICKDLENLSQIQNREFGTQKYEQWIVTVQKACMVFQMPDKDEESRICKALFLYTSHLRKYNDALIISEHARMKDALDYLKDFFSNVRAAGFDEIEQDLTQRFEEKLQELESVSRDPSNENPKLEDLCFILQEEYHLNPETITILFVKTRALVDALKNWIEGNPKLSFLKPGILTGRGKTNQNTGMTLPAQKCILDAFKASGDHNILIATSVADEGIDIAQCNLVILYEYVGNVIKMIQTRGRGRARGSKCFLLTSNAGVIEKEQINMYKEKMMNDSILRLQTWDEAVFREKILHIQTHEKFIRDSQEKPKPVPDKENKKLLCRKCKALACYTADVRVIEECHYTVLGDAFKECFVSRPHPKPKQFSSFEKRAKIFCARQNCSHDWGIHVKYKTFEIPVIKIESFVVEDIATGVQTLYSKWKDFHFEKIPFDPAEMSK

[4] = biological target: T3, TBK1, human, Flag- or HA-tagged, expressed in 293T cells (human) (UniProt Q9UHD2)
T3 sequence: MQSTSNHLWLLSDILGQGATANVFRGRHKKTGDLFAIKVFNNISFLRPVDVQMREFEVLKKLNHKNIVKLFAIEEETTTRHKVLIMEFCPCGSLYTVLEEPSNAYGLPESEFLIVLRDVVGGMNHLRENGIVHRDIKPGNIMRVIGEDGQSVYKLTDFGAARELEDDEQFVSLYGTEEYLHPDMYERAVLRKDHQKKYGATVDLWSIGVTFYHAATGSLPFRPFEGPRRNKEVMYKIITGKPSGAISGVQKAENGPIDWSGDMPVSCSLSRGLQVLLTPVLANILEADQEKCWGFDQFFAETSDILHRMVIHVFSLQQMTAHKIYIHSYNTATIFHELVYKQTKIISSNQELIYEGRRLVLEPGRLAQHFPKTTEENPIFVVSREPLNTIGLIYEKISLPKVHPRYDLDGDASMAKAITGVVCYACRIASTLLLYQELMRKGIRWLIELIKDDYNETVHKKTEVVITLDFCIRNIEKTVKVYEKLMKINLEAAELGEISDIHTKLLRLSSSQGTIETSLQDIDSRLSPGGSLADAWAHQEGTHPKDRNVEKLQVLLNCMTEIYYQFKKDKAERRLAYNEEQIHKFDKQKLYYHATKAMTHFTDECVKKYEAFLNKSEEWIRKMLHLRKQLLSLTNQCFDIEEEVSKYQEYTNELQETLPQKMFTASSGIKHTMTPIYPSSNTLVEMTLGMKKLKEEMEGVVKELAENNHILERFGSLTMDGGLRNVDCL

Measured: binding

MAP4K1, full-length human, Flag- or HA-tagged, expressed in 293T cells (co-immunoprecipitation of Fig. 1A) (from UniProt Q92918 1-833)
binds: all assays above
